Paper PMC10735217

Chains of the proteins cited; added tags and fusions are not shown. Lines headed by an entry give the natural chain unless they say otherwise; changes in a name come on top.
UniProt Q9Y2J4: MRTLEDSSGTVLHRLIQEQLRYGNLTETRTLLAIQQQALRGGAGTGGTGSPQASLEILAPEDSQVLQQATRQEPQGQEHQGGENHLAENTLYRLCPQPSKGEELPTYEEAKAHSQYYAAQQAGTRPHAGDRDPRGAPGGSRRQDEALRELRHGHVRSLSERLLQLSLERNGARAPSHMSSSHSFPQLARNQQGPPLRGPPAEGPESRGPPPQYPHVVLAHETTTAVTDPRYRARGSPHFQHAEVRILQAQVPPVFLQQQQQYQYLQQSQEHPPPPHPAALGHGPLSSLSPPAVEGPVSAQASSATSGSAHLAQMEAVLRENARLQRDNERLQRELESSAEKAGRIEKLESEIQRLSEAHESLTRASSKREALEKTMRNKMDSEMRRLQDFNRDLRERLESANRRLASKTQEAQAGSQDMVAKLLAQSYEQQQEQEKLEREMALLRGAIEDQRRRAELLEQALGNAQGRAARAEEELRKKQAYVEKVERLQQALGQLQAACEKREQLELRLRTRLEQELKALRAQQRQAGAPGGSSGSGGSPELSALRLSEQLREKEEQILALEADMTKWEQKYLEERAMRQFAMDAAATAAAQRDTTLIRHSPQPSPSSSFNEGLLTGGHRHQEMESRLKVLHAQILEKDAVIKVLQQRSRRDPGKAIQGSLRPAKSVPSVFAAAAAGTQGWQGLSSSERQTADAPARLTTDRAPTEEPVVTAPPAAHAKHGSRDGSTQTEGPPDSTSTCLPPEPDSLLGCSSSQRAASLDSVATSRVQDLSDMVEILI
UniProt P46937: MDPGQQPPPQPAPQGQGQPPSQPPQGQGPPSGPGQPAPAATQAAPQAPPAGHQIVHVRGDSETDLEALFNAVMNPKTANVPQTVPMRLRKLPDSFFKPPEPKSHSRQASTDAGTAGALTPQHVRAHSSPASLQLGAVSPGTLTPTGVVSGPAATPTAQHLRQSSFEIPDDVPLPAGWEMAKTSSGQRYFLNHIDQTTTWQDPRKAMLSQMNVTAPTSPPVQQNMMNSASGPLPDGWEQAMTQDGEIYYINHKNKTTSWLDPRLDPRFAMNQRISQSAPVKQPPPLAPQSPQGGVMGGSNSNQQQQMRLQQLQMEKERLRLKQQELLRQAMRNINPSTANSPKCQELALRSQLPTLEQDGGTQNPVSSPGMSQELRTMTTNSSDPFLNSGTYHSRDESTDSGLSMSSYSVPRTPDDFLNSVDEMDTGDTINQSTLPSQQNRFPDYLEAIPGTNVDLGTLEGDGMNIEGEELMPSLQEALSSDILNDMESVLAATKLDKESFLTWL

Columns and labels:
Assay in all cases: co-IP; anti-FLAG M2 magnetic beads on lysates of HEK293T cells at high cell density co-expressing FLAG-AMOTL2 constructs and HA-YAP; overnight at 4 °C; eluted with FLAG peptide; anti-HA immunoblot
[1] = biological target: FLAG-tagged exon 5-skipped AMOTL2 (∆5) (UniProt Q9Y2J4)
[2] = biological target: FLAG-tagged double exon-skipped AMOTL2 (∆5∆9) (UniProt Q9Y2J4)
[3] = biological target: FLAG-tagged exon 9-skipped AMOTL2 (∆9) (UniProt Q9Y2J4)

Measured: binding

HA-tagged YAP (Yes-associated protein) (from UniProt P46937 1-504)
binds: all assays above

These are yes or no findings as the source states them, for the method shown. Binding seen in cells or lysates may run through a third protein. Binding can be weak; no strength is given.
